The experiment has as its target Enhancer of Zeste [E(z)] (D. melanogaster (endogenous in larval CNS)) (UniProt P42124). The experiment in a line: co-IP; third instar larval CNS protein extracts (1 mg per reaction; 25 mM Hepes, 0.1 mM EDTA, 12.5 mM MgCl2, 10% glycerol, 0.01% NP-40, 10 mM NaCl; sonicated), precipitated with anti-Ph or anti-E(z) overnight at 4°C on protein A/G beads, Western blot. On the technique in general: A western blot detects proteins with antibodies after separation by electrophoresis.

No constants are given. Whether binding was seen depends on the method and setting. In cells and extracts the contact can be indirect.

For “Drosophila TET (TET-GFP fusion protein from Tet-GFP knock-in flies) (from UniProt M9NEY8-5 1-2921)”, the binding result is recorded as “no binding”.
